Results reported in publication PMC5915836, “Chiral probes for α1-AGP reporting by species-specific induced circularly polarised luminescence” (Chemical Science, 2018).

Molecular target: T1, bovine α1-AGP (α1-acid glycoprotein) (Bos taurus, UniProt Q3SZR3)
T1 construct: gene ORM1
T1 sequence (Q3SZR3 19-202): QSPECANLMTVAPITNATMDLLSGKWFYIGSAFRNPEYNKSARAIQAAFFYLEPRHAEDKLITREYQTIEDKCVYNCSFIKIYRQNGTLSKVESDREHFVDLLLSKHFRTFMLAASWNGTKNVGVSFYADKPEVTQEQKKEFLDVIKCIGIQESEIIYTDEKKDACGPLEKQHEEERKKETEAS
Assay: competitive displacement of [EuL^[…]], Eu emission
Format: binding
Conditions: pH 7.40, 298 K; probe not completely displaced, emission quenching read-out

Cc1ccc(NC(=O)c2ccc(CN3CCN(C)CC3)cc2)cc1Nc1nccc(-c2cccnc2)n1 [imatinib]
Imatinib: 4.8
